From article PMC10960834 come the findings set out here.

Sequences of proteins named here, by UniProt entry; tags and fusion partners are left off. A change or cut given only in a name is not applied to a line headed by its entry.
UniProt P05198: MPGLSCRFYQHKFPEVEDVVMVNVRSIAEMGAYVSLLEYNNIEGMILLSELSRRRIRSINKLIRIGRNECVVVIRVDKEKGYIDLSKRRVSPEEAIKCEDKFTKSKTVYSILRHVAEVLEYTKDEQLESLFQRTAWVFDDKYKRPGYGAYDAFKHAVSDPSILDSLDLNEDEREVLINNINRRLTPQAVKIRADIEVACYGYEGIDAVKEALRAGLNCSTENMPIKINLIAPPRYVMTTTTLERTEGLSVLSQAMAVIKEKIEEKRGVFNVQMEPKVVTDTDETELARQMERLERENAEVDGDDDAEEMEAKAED
UniProt Q9P2K8: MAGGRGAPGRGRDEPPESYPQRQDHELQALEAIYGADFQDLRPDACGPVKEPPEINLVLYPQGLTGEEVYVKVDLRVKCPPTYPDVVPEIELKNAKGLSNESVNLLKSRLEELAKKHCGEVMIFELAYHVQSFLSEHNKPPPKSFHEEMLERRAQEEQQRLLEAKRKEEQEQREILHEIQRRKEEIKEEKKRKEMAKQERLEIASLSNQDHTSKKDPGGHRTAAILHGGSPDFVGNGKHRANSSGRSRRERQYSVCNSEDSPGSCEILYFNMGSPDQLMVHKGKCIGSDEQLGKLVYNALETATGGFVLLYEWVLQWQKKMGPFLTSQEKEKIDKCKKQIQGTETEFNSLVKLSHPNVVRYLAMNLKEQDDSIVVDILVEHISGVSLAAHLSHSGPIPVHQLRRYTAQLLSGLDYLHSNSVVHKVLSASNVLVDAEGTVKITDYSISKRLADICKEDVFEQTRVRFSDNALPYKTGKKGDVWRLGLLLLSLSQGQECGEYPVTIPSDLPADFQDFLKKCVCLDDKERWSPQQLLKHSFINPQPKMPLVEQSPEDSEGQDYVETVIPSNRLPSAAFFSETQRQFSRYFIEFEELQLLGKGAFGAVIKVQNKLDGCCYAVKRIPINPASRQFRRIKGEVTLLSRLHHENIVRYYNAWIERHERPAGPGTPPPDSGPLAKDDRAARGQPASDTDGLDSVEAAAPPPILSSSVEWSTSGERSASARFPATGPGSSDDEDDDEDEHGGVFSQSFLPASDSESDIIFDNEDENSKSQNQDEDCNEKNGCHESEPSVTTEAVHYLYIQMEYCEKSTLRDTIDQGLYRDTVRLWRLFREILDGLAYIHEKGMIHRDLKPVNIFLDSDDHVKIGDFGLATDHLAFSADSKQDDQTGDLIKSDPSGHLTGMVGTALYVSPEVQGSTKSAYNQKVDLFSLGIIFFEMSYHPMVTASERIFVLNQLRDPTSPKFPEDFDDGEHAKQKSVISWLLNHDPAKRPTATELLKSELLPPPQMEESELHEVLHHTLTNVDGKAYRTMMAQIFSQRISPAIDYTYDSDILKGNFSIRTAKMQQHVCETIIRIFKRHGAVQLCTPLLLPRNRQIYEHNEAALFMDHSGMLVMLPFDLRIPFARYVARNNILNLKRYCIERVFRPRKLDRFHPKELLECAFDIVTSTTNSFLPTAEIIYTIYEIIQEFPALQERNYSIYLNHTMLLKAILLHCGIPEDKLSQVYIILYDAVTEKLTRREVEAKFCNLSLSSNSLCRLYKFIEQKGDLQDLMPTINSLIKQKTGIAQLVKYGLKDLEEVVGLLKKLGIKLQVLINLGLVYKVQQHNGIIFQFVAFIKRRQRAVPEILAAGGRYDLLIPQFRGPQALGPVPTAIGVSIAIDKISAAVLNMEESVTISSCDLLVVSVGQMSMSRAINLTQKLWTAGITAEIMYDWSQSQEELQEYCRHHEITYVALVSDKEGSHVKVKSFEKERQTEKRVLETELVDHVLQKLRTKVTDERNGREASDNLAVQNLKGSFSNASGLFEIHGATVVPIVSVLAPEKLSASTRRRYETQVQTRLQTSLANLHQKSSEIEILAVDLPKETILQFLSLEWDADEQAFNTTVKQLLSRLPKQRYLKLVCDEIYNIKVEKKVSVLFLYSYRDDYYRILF

No constants are given. Whether binding was seen depends on the method and setting. In cells and extracts the contact can be indirect. Some results given as binding are weak or reduced against the parent protein; the word gives no strength. For some assays here: Sequences can lack the tags named with a protein.

The target of test [1] is T1, FLAG-tagged AURKA (Aurora kinase A) (UniProt O14965).
T1 sequence: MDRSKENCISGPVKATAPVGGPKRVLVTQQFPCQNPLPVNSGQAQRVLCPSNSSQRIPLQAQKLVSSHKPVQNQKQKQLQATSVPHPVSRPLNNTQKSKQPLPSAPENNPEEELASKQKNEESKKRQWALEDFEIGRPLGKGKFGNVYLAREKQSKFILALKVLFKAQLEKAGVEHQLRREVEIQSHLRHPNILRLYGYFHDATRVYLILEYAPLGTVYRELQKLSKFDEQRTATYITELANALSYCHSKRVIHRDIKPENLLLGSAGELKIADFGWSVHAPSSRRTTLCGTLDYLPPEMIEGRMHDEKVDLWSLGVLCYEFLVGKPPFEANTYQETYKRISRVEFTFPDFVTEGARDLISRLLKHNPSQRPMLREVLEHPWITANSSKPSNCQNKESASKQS
The test can be described thus: co-IP; anti-FLAG antibody (IgG as control in some panels) on lysates of transfected HEK293T cells; NETN buffer (20 mM Tris-HCl pH 8.0, 100 mM NaCl, 0.5% NP-40, 1 mM EDTA), antibody overnight at 4 °C, Protein A/G magnetic beads, western blot; in Fig. 5E cells treated with vehicle or 200 nM MLN8237 for 4 h; in Fig. 5H with control vector or His-AURKA. (In general: Immunoblotting shows a protein as a band on a membrane.)

The target in test [2] is FLAG-eIF2α (UniProt P05198). Described as above.
Test [3] deals with T2, FLAG-tagged AURKA, overexpressed in MDA-MB-231 cells (UniProt O14965).
T2 sequence: T1 sequence
The test can be described thus: co-IP; lysates of MDA-MB-231 cells overexpressing FLAG-tagged AURKA (Fig. S4A); NETN buffer, Protein A/G magnetic beads, western blot.

The target in test [4] is T3, AURKA, endogenous in H1975 cells (human (endogenous in H1975)) (UniProt O14965).
T3 sequence: T1 sequence
The test can be described thus: co-IP; endogenous proteins, IgG or AURKA antibody on H1975 lysate; NETN buffer, 4 °C, Protein A/G magnetic beads, blot with the eIF2α antibody.

In test [5] the target is HA-tagged eIF2α (UniProt P05198). The test can be described thus: co-IP; anti-HA antibody on lysates of HEK293T cells overexpressing HA-eIF2α, FLAG-AURKA or both; NETN buffer, 4 °C, Protein A/G magnetic beads, western blot.

With “HA-GCN2 (from UniProt Q9P2K8 1-1649) (enzyme)”, the binding result in test [1] and in test [2] was “binds” in each case.

Regarding “HA-eIF2α-S52A (from UniProt P05198 1-315)”, the binding result in test [1] is recorded as “binds”.

For the molecule “HA-tagged eIF2α (from UniProt P05198 1-315)”, the binding entry in test [1] is listed as “binds”.

In the case of “eIF2α (untagged, overexpressed) (from UniProt P05198 1-315)”, the binding result in test [1] was “binds”.

Take “eIF2α in MDA-MB-231 cells (from UniProt P05198 1-315)”: in test [3], the binding entry is on record as “binds”.

Regarding “eIF2α, endogenous in H1975 cells (from UniProt P05198 1-315)”, in test [4], the binding result is reported as “binds”.

B1: FLAG-tagged AURKA (Aurora kinase A) (enzyme, UniProt O14965 1-403)
chain: T1 sequence
Consider B1, for which the binding entry in test [5] is reported as “binds”.
